Among the data in PMC13284301 are binding values, retold here.

By UniProt entry, the sequences of proteins in these tests, tags left out.
UniProt P41377: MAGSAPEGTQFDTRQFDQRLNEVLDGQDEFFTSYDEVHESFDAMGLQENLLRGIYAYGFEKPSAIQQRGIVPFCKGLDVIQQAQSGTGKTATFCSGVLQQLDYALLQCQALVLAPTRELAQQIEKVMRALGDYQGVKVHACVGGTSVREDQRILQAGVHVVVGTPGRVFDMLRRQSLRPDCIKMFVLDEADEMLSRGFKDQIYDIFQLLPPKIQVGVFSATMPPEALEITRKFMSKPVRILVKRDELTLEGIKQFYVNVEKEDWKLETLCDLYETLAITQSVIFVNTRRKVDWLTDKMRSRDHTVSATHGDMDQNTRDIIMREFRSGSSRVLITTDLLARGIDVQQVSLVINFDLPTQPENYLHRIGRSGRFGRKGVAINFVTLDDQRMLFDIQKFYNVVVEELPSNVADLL
UniProt P41376: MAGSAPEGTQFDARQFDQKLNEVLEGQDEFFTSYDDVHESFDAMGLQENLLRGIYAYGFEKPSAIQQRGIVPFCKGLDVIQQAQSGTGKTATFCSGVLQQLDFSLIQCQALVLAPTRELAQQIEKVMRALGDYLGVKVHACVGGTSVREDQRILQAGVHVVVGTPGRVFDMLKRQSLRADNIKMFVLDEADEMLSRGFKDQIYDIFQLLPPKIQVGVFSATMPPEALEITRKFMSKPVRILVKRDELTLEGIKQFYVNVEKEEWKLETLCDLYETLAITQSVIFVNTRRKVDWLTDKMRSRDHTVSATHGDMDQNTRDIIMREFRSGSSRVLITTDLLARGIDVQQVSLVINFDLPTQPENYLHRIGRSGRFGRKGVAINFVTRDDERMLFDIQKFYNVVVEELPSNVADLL

No constants are given. Whether binding was seen depends on the method and setting. Binding seen in cells or lysates may run through a third protein. Some binding calls cover weakened binding; strength is not graded here. Where a sequence is shown, tags or fusion partners need not be part of it.

Assay [1] concerns the target T1, nYFP-SMG7^Δ715-885 (Arabidopsis thaliana) (UniProt A9QM73).
T1 sequence: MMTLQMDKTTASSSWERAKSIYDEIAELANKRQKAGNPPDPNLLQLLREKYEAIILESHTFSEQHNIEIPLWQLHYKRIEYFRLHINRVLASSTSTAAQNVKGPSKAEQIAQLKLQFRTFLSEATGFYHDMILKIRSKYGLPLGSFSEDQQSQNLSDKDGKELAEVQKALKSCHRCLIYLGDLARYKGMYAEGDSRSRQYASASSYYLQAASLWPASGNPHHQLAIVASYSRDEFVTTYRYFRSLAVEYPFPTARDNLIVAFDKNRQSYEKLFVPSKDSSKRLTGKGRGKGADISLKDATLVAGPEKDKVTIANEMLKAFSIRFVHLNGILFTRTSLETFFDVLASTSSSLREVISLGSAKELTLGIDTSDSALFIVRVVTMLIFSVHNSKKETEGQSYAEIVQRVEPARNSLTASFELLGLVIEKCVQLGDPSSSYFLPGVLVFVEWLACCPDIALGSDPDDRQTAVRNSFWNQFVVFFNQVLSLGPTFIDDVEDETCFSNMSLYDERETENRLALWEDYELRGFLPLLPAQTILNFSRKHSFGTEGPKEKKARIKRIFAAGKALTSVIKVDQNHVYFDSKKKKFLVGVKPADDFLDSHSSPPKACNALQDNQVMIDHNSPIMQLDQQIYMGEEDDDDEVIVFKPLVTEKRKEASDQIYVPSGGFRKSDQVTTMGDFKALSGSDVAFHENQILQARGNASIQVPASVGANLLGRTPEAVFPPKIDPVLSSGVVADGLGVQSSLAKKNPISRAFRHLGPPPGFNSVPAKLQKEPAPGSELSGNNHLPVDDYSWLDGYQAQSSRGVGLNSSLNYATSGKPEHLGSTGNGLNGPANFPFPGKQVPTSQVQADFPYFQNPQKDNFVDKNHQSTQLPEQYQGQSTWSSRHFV
The assay is described as follows: split reporter; BiFC in transfected Arabidopsis mesophyll protoplasts, nYFP on SMG7 and cYFP on the partner, imaged by confocal microscopy after 16 h.

In assay [2] the target is T2, nYFP-SMG7^Δ917-1010 (Arabidopsis thaliana) (UniProt A9QM73).
T2 sequence: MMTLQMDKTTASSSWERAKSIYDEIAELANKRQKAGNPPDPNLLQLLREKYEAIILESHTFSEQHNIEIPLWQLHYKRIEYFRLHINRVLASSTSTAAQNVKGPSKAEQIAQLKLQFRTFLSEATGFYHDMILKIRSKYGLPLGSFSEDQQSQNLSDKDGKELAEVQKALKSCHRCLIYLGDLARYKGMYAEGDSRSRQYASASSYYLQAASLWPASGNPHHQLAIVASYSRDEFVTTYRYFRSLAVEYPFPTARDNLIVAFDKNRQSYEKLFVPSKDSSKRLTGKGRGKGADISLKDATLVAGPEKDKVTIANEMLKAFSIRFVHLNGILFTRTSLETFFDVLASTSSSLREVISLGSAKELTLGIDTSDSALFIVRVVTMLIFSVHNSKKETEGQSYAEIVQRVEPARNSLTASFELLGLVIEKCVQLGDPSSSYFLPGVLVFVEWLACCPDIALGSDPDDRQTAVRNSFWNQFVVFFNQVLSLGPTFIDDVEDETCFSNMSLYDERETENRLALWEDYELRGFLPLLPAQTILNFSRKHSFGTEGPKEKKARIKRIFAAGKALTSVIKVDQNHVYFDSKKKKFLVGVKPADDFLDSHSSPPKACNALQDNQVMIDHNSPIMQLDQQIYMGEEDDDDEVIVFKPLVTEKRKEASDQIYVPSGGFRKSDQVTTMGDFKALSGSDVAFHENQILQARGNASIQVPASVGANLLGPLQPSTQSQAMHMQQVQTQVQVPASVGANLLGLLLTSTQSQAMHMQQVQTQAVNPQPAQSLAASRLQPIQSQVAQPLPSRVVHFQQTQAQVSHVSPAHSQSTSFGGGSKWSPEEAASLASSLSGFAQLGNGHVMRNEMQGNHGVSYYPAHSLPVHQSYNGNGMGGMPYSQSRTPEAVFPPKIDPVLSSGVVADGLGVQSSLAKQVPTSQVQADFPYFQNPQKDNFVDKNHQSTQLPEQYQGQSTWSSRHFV
The description is as above.

Take eIF4A2-cYFP (from UniProt P41377 1-412): the binding result in assay [1] and in assay [2] was “binds” in each case.

Regarding eIF4A1-cYFP (from UniProt P41376 1-412), the binding entry in assay [1] and in assay [2] was “binds” in each case.
